Test results from the supplement of paper PMC10849652.
The list shows a part of the results.

The chains behind the UniProt entries cited, without tags or fusion partners. Where a name states a change or a piece, a line headed by the entry shows the natural chain unless it says otherwise.
UniProt Q9UGY1: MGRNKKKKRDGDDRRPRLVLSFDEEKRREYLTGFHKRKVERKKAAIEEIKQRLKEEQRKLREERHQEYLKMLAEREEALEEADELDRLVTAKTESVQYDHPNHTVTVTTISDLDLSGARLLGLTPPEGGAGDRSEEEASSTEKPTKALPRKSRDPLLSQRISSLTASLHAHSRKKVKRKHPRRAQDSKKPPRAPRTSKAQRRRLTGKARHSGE
UniProt Q15653: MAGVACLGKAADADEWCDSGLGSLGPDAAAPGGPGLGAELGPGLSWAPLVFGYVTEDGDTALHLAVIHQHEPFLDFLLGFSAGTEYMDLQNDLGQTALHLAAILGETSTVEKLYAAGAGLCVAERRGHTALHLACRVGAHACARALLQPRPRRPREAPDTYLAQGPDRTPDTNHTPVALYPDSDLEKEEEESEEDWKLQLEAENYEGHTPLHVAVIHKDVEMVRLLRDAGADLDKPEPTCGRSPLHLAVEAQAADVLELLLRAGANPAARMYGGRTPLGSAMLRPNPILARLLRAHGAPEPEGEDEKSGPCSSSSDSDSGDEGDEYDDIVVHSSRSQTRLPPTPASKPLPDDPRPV
UniProt Q96T66: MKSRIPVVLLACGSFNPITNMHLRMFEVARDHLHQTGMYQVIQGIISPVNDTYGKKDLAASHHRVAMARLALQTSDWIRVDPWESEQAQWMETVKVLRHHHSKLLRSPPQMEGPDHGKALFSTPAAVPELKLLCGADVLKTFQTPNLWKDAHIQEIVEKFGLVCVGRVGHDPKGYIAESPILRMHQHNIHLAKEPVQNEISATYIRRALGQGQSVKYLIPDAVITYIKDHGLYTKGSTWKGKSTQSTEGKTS
UniProt O60551: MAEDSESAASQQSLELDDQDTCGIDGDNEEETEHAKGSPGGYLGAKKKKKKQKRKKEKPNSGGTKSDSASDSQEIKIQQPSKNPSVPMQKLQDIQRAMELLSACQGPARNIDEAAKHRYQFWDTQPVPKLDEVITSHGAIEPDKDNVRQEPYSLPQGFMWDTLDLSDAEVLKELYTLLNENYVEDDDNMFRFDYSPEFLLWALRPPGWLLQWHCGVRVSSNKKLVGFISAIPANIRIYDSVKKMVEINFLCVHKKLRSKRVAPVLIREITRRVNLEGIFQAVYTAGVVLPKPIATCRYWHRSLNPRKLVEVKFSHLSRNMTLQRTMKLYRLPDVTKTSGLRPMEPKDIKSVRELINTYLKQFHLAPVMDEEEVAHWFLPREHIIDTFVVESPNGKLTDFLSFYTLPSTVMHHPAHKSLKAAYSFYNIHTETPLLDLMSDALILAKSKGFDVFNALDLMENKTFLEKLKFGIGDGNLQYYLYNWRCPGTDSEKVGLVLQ
UniProt P48645: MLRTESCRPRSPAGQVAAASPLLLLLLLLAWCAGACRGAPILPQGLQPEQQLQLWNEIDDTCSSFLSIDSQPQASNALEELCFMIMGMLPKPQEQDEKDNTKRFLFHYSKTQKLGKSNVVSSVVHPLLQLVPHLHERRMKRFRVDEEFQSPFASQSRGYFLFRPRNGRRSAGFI
UniProt Q96L73: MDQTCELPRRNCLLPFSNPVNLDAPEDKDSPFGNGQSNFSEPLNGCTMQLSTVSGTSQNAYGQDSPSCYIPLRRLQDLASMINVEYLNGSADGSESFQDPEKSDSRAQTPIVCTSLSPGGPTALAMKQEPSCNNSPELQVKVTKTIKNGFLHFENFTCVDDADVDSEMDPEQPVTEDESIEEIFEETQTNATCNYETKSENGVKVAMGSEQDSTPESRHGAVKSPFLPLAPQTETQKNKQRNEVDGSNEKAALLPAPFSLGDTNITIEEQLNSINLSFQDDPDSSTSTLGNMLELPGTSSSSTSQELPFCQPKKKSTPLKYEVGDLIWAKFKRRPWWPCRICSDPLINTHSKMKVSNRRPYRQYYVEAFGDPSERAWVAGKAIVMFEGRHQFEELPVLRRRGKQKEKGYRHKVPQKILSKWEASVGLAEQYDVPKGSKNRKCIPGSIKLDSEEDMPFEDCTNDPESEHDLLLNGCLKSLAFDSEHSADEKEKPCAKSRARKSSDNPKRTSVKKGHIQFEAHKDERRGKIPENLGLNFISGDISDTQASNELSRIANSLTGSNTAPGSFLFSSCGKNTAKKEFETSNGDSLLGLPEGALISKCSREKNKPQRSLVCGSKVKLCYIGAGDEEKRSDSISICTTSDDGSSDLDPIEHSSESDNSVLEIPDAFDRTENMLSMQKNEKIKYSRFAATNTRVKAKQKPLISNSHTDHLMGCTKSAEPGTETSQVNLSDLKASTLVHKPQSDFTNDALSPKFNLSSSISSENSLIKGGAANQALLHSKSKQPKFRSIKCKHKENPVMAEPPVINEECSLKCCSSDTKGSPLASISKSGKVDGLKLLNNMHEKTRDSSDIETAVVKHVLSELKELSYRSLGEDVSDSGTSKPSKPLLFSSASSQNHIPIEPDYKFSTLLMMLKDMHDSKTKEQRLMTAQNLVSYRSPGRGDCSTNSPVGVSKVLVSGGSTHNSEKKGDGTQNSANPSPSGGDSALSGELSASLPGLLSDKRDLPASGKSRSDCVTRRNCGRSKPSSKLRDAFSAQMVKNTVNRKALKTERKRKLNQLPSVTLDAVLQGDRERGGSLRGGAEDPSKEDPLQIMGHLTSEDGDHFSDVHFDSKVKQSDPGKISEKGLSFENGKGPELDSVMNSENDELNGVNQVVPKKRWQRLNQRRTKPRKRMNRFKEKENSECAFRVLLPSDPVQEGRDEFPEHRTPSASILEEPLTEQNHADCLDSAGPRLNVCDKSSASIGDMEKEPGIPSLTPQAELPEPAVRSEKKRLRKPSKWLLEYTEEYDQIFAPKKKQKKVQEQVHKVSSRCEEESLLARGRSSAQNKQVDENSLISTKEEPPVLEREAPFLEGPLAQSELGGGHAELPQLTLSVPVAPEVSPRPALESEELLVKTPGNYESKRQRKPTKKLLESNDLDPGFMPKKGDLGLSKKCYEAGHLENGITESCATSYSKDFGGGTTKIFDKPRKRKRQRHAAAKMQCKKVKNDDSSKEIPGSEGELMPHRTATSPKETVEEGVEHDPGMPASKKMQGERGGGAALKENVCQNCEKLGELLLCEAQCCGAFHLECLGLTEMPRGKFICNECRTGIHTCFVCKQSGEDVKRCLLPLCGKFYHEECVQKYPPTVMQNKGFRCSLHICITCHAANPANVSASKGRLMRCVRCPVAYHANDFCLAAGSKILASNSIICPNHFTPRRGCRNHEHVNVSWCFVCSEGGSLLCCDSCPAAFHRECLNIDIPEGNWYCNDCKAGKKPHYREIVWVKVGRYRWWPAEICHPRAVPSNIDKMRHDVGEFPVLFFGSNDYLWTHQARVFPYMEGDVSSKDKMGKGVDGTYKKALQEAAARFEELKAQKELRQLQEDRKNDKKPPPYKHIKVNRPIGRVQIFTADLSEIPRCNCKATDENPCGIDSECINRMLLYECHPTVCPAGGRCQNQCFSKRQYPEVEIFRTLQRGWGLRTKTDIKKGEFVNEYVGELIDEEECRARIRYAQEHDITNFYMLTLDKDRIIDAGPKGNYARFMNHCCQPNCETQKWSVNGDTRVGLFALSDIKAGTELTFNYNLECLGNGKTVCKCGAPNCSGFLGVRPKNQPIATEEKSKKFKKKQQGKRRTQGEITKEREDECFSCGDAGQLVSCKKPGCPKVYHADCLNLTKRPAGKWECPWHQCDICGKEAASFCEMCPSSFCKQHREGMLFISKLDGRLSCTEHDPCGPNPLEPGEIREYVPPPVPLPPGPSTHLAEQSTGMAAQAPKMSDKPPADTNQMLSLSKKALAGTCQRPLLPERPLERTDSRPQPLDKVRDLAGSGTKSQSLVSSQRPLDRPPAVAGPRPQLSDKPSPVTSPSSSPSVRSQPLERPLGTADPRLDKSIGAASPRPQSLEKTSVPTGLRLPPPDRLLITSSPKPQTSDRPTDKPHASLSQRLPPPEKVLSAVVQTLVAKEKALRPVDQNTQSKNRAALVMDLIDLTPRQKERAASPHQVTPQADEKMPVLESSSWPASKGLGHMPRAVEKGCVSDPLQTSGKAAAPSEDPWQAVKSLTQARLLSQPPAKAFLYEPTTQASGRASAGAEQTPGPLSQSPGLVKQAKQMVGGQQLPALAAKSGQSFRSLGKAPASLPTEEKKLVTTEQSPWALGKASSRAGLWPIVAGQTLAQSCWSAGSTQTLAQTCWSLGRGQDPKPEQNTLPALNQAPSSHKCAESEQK
UniProt Q9NQR4: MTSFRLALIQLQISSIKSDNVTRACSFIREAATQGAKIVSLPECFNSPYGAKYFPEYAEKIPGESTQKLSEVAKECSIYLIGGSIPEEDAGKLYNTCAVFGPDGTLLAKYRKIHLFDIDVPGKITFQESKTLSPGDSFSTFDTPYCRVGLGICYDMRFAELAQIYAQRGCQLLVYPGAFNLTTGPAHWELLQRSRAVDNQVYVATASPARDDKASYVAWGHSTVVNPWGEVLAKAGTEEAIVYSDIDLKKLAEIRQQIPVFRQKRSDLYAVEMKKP
UniProt Q15233: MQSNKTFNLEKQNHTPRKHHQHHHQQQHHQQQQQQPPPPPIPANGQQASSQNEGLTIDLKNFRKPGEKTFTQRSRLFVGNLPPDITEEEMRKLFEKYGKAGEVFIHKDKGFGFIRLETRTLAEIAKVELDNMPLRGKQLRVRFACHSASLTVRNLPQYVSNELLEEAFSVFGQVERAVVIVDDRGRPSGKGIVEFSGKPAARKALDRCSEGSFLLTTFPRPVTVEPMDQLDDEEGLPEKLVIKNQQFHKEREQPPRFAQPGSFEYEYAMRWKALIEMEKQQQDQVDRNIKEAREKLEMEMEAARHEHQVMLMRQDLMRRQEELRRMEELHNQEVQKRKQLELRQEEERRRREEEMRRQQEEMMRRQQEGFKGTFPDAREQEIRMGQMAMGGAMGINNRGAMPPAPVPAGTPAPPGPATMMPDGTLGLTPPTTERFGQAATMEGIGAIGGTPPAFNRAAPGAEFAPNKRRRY
UniProt Q16656: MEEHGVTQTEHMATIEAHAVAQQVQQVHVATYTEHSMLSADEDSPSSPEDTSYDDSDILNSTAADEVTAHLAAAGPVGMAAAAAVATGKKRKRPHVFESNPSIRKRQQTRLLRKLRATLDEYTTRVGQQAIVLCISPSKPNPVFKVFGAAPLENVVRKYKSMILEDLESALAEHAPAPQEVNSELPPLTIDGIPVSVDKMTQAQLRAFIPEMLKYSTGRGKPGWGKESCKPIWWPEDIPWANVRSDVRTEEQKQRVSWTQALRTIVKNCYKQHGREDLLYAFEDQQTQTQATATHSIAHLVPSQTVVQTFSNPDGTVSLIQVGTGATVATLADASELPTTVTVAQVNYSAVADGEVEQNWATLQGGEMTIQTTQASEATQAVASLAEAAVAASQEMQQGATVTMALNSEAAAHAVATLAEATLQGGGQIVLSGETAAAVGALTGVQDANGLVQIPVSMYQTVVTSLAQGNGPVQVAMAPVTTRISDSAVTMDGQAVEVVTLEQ
UniProt Q12986: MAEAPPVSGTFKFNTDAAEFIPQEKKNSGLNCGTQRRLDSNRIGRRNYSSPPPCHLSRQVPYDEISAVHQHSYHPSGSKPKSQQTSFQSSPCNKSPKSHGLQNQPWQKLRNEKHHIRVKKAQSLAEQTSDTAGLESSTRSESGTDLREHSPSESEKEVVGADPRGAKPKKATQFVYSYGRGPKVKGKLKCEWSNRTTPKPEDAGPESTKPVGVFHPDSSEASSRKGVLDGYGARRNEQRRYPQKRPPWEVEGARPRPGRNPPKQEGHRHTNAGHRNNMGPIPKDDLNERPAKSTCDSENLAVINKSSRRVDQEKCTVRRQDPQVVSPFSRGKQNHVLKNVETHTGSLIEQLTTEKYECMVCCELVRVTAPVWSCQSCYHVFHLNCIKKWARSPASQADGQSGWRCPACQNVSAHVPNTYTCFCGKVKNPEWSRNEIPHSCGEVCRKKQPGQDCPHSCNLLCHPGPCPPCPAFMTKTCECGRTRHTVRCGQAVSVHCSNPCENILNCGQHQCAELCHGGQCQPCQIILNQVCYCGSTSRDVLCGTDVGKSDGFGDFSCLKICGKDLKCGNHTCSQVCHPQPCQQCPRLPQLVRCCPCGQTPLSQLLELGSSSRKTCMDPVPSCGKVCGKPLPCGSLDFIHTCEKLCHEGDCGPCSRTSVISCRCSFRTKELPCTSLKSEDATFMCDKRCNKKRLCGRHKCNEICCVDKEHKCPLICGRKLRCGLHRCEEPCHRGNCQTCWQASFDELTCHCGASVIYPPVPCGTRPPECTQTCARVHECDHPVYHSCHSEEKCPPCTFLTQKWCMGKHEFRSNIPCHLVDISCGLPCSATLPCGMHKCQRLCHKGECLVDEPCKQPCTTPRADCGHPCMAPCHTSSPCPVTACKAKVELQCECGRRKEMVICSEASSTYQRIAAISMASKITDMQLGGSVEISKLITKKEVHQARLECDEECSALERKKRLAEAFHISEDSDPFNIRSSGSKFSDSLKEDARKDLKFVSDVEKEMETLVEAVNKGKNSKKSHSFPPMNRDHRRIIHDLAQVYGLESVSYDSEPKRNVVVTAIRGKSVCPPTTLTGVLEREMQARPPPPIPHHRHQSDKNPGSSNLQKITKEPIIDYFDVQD

Legend:
Test in all cases: log2 fold change, soluble protein after heating vs DMSO (PISA); higher = thermal stabilisation; K562 cells, 10 uM, 30 min; active = over 0.2 and 3.5 SD of the protein, either way, in both replicates (recomputed)
[1] = compound: C1=CC=C(C=C1)[C@H](COC2=CC3=C(C=C2)NC(=O)N3)NC(=O)C4=CC=CN(C4=O)CC5=CC(=C(C=C5)F)F
How it was run: (§1)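 Soluble protein was defined as the supernatant after 21,000xg for 90 min. It came from K562 cells at 2×10^6 cells/mL given 10 μM compound for 30 min, heated in aliquots for 3 min across 48°C-58°C, pooled, and extracted in PBS with 0.5% NP-40 at 4°C, and was quantified by TMTpro 16plex LC-MS/MS with equalised channel sums. Thermal stability against control samples, from duplicates, is reported as log2 fold change.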

[2] = compound: CC1=C(SC2=C1C(=N[C@H](C3=NN=C(N32)C)CC(=O)N)C4=CC=C(C=C4)Cl)C
How it was run: as §1

[3] = compound: CC1=C2C(=CC=C1)N=C(N(C2=O)C3=CC=CC=C3C)CN4C=NC5=C(N=CN=C54)N
How it was run: as §1

[4] = compound: Cc1sc2c(c1C)C(c1ccc(Cl)cc1)=N[C@@H](CC(=O)OC(C)(C)C)c1nnc(C)n1-2
How it was run: as §1

[5] = compound: c1ccc([C@@H]2C[C@H]2NC2CCNCC2)cc1
How it was run: as §1

Measured: log2 fold change

NMRAL1 (UniProt Q9HBL8)
inactive: [1] -0.12 | [2] -0.017 | [3] 0.025 | [4] -0.139 | [5] -0.094

NKTR (UniProt P30414)
inactive: [1] 0.014

NES (UniProt P48681)
inactive: [1] -0.368 | [2] -0.234 | [3] 0.011 | [4] 0.044 | [5] -0.016

NELFE isoform 3 (UniProt P18615)
inactive: [1] -0.017 | [2] -0.004 | [3] -0.002 | [4] -0.003 | [5] 0.029

NOMO3 (UniProt P69849)
inactive: [1] 0.036

NIT1 (UniProt Q86X76)
inactive: [1] 0.029 | [2] 0.01 | [3] -0.023 | [4] -0.001 | [5] 0.047

NRGN (UniProt Q92686)
inactive: [1] 0.048

NRAS (UniProt P01111)
inactive: [1] -0.001 | [2] 0.082 | [3] -0.018 | [4] -0.017 | [5] 0.017

NME2P1 (UniProt O60361)
inactive: [1] -0.171 | [2] 0.079 | [3] 0.063 | [4] 0.082 | [5] -0.004

NME3 (UniProt Q13232)
inactive: [1] 0.001 | [2] 0.003 | [3] 0.036 | [4] 0.022 | [5] 0.013

NSA2 (UniProt O95478)
inactive: [1] -0.411

NPTN (UniProt Q9Y639)
inactive: [1] -0.004 | [2] 0.023 | [3] 0.033 | [4] 0.026 | [5] 0.039

NOL12 (UniProt Q9UGY1)
inactive: [1] 0.123 | [2] -0.214 | [3] -0.234 | [4] 0.116 | [5] 0.047

NFKBIB (UniProt Q15653)
inactive: [1] 0.01 | [2] 0.051 | [3] 0.097 | [4] -0.015 | [5] -0.012

NR2F6 (UniProt P10588)
inactive: [1] -0.032 | [2] 0.025 | [3] 0.006 | [4] 0.084 | [5] -0.067

NHEJ1 (UniProt Q9H9Q4)
inactive: [1] -0.008 | [2] 0.043 | [3] 0.131 | [4] -0.179 | [5] -0.041

NIBAN1 (UniProt Q9BZQ8)
inactive: [1] -0.017 | [2] 0.015 | [3] 0.056 | [4] 0.028 | [5] 0.03

NOP56 (UniProt O00567)
inactive: [1] 0.045 | [2] -0.289 | [3] -0.281 | [4] 0.154 | [5] 0.024

NFATC4 isoform 2 (UniProt Q14934)
inactive: [1] -0.062 | [2] 0.107 | [3] 0.156 | [4] 0.016 | [5] -0.003

NOSIP (UniProt Q9Y314)
inactive: [1] 0.056 | [2] 0.043 | [3] 0.179 | [4] -0.043 | [5] 0.016

NMNAT3 (UniProt Q96T66)
inactive: [1] -0.073

NOS1AP (UniProt O75052)
inactive: [1] -0.109 | [2] 0.025 | [3] 0.362 | [4] -0.141 | [5] -0.178

NHP2 (UniProt Q9NX24)
inactive: [1] 0 | [2] -0.135 | [3] -0.138 | [4] 0.122 | [5] 0.133

NIPSNAP3A (UniProt Q9UFN0)
inactive: [1] 0.052 | [2] 0.011 | [3] 0 | [4] 0.023 | [5] 0.038

NOMO2 (UniProt Q5JPE7)
inactive: [1] 0.027 | [2] 0.029 | [3] 0.027 | [4] -0.036 | [5] -0.019

NPLOC4 isoform 2 (UniProt Q8TAT6)
inactive: [1] -0.02 | [2] 0.018 | [3] 0.046 | [4] -0.029 | [5] 0.006

NMT2 (UniProt O60551)
inactive: [1] -0.045 | [2] 0.053 | [3] 0.092 | [4] 0.026 | [5] -0.107

NMU (UniProt P48645)
inactive: [1] -0.109 | [2] 0.008 | [3] -0.03 | [4] 0.066 | [5] -0.086

NSD1 (UniProt Q96L73)
inactive: [1] 0.016

NIPSNAP2 (UniProt C9J7B1)
inactive: [1] -0.069

NFYA (UniProt P23511)
inactive: [1] -0.019 | [2] 0.08 | [3] 0.09 | [4] 0.018 | [5] -0.066

Copied from the listing (2 entries):
NMU (UniProt P48645)
inactive: [1] -0.109 | [2] 0.008 | [3] -0.03 | [4] 0.066 | [5] -0.086

NSD1 (UniProt Q96L73)
inactive: [1] 0.016

The listing continues:

NOC3L (UniProt Q8WTT2)
inactive: [1] -0.188

NSD3 (UniProt Q9BZ95)
inactive: [1] -0.097 | [2] 0.201 | [3] -0.309 | [4] 0.278 | [5] -0.059

NIT2 (UniProt Q9NQR4)
inactive: [1] -0.016 | [2] 0.047 | [3] 0.06 | [4] -0.025 | [5] -0.012

NOP58 (UniProt Q9Y2X3)
inactive: [1] 0.039 | [2] -0.151 | [3] -0.063 | [4] 0.068 | [5] 0.031

NFATC2IP (UniProt Q8NCF5)
inactive: [1] -0.051 | [2] 0.18 | [3] 0.039 | [4] -0.088 | [5] 0.156

NEMF (UniProt O60524)
inactive: [1] 0.02 | [2] -0.226 | [3] -0.164 | [4] 0.189 | [5] -0.035

Reprinted from above (13 entries):
NOMO2 (UniProt Q5JPE7)
inactive: [1] 0.027 | [2] 0.029 | [3] 0.027 | [4] -0.036 | [5] -0.019

NPLOC4 isoform 2 (UniProt Q8TAT6)
inactive: [1] -0.02 | [2] 0.018 | [3] 0.046 | [4] -0.029 | [5] 0.006

NMT2 (UniProt O60551)
inactive: [1] -0.045 | [2] 0.053 | [3] 0.092 | [4] 0.026 | [5] -0.107

NMU (UniProt P48645)
inactive: [1] -0.109 | [2] 0.008 | [3] -0.03 | [4] 0.066 | [5] -0.086

NSD1 (UniProt Q96L73)
inactive: [1] 0.016

NIPSNAP2 (UniProt C9J7B1)
inactive: [1] -0.069

NFYA (UniProt P23511)
inactive: [1] -0.019 | [2] 0.08 | [3] 0.09 | [4] 0.018 | [5] -0.066

NOC3L (UniProt Q8WTT2)
inactive: [1] -0.188

NSD3 (UniProt Q9BZ95)
inactive: [1] -0.097 | [2] 0.201 | [3] -0.309 | [4] 0.278 | [5] -0.059

NIT2 (UniProt Q9NQR4)
inactive: [1] -0.016 | [2] 0.047 | [3] 0.06 | [4] -0.025 | [5] -0.012

NOP58 (UniProt Q9Y2X3)
inactive: [1] 0.039 | [2] -0.151 | [3] -0.063 | [4] 0.068 | [5] 0.031

NFATC2IP (UniProt Q8NCF5)
inactive: [1] -0.051 | [2] 0.18 | [3] 0.039 | [4] -0.088 | [5] 0.156

NEMF (UniProt O60524)
inactive: [1] 0.02 | [2] -0.226 | [3] -0.164 | [4] 0.189 | [5] -0.035

(next part)

NFYC (UniProt Q13952)
inactive: [1] 0.002 | [2] 0.063 | [3] 0.036 | [4] 0.014 | [5] -0.014

NRM (UniProt Q8IXM6)
inactive: [1] -0.034 | [2] -0.048 | [3] -0.044 | [4] 0.103 | [5] 0.136

NOLC1 isoform 2 (UniProt Q14978)
inactive: [1] 0 | [2] -0.029 | [3] 0.002 | [4] -0.012 | [5] 0.108

NEK9 (UniProt Q8TD19)
inactive: [1] -0.012 | [2] 0.068 | [3] 0.031 | [4] -0.024 | [5] 0

NPC1L1 (UniProt Q9UHC9)
inactive: [1] 0.183 | [2] 0.063 | [3] 0.024 | [4] 0.007 | [5] 0.047

NELFA (UniProt Q9H3P2)
inactive: [1] -0.016 | [2] 0.213 | [3] 0.056 | [4] -0.07 | [5] 0.035

NSL1 (UniProt Q96IY1)
inactive: [1] 0.021 | [2] 0.059 | [3] 0.146 | [4] 0 | [5] -0.052

NLE1 (UniProt Q9NVX2)
inactive: [1] 0.043 | [2] 0.058 | [3] 0.001 | [4] -0.026 | [5] 0.004

NFAT5 isoform 5 (UniProt O94916)
inactive: [1] 0.004 | [2] -0.085 | [3] 0.032 | [4] 0.09 | [5] 0.028

NGRN (UniProt Q9NPE2)
inactive: [1] 0.056 | [2] 0.043 | [3] 0.054 | [4] 0.058 | [5] -0.002

NFIA isoform 4 (UniProt Q12857)
inactive: [1] 0.013 | [2] -0.012 | [3] 0.056 | [4] 0.067 | [5] 0.059

NONO (UniProt Q15233)
inactive: [1] -0.092 | [2] -0.179 | [3] -0.039 | [4] 0.004 | [5] 0.018

NOP16 (UniProt Q9Y3C1)
inactive: [1] 0.17 | [2] -0.37 | [3] -0.326 | [4] 0.179 | [5] 0

NNT (UniProt Q13423)
inactive: [1] -0.014 | [2] 0.091 | [3] 0.044 | [4] -0.028 | [5] 0

NFYB (UniProt P25208)
inactive: [1] -0.015 | [2] -0.119 | [3] -0.165 | [4] -0.048 | [5] 0.057

NIP7 (UniProt Q9Y221)
inactive: [1] 0.18 | [2] -0.254 | [3] -0.207 | [4] 0.144 | [5] -0.051

NRF1 isoform 4 (UniProt Q16656)
inactive: [1] -0.045 | [2] 0.001 | [3] 0.085 | [4] -0.043 | [5] -0.039

NFS1 (UniProt Q9Y697)
inactive: [1] 0.008 | [2] 0.076 | [3] 0.053 | [4] 0.006 | [5] -0.012

NOL6 (UniProt Q9H6R4)
inactive: [1] -0.029 | [2] -0.174 | [3] -0.128 | [4] 0.128 | [5] 0.035

NNMT (UniProt P40261)
inactive: [1] 0.021 | [2] 0.051 | [3] 0.078 | [4] -0.009 | [5] -0.055

NFX1 (UniProt Q12986)
inactive: [1] -0.011 | [2] -0.161 | [3] -0.068 | [4] 0.115 | [5] -0.163
